Amino acid sequences for entries named in this document (tags omitted).
UniProt P08670: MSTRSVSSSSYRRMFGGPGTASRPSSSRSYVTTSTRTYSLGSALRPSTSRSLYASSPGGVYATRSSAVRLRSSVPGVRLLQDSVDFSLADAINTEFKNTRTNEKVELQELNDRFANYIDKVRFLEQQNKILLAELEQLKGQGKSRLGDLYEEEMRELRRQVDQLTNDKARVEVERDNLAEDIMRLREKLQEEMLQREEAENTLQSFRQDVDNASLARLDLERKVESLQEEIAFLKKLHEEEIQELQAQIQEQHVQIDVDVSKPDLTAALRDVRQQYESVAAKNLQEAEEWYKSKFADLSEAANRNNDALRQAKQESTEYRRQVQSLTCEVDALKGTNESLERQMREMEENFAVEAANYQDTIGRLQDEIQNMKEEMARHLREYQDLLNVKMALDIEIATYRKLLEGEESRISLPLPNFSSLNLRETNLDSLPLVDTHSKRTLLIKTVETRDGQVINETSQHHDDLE
UniProt P08238: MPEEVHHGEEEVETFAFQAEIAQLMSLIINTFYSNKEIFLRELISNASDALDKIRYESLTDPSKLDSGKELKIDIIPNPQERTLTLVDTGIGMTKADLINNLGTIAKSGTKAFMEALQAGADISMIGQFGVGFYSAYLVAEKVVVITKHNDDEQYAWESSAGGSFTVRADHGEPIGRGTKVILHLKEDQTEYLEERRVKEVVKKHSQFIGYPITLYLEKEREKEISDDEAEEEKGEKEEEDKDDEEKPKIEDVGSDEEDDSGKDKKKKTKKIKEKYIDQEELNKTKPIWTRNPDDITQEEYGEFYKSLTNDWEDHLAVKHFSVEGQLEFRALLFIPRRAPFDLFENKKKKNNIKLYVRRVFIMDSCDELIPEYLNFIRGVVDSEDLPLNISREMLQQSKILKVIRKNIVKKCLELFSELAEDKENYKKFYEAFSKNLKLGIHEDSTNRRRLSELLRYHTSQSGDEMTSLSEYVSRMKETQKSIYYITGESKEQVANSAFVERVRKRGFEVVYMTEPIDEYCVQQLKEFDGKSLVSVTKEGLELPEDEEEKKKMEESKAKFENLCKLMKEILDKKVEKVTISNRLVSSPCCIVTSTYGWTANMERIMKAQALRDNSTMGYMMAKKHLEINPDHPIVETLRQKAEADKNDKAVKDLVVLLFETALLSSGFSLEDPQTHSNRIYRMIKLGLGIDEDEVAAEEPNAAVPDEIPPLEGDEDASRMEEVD
UniProt P41219: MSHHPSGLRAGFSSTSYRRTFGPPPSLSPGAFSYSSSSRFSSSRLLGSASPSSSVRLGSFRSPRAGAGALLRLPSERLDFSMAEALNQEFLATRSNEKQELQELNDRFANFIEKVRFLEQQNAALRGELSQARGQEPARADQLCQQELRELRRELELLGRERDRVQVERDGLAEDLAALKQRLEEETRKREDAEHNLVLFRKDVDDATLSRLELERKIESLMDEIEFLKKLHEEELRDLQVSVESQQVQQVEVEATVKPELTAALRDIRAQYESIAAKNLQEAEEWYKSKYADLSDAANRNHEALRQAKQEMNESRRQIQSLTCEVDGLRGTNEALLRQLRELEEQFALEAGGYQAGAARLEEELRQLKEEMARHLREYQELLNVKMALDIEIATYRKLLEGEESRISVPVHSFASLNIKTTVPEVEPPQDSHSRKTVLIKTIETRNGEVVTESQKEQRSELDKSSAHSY
UniProt O75592: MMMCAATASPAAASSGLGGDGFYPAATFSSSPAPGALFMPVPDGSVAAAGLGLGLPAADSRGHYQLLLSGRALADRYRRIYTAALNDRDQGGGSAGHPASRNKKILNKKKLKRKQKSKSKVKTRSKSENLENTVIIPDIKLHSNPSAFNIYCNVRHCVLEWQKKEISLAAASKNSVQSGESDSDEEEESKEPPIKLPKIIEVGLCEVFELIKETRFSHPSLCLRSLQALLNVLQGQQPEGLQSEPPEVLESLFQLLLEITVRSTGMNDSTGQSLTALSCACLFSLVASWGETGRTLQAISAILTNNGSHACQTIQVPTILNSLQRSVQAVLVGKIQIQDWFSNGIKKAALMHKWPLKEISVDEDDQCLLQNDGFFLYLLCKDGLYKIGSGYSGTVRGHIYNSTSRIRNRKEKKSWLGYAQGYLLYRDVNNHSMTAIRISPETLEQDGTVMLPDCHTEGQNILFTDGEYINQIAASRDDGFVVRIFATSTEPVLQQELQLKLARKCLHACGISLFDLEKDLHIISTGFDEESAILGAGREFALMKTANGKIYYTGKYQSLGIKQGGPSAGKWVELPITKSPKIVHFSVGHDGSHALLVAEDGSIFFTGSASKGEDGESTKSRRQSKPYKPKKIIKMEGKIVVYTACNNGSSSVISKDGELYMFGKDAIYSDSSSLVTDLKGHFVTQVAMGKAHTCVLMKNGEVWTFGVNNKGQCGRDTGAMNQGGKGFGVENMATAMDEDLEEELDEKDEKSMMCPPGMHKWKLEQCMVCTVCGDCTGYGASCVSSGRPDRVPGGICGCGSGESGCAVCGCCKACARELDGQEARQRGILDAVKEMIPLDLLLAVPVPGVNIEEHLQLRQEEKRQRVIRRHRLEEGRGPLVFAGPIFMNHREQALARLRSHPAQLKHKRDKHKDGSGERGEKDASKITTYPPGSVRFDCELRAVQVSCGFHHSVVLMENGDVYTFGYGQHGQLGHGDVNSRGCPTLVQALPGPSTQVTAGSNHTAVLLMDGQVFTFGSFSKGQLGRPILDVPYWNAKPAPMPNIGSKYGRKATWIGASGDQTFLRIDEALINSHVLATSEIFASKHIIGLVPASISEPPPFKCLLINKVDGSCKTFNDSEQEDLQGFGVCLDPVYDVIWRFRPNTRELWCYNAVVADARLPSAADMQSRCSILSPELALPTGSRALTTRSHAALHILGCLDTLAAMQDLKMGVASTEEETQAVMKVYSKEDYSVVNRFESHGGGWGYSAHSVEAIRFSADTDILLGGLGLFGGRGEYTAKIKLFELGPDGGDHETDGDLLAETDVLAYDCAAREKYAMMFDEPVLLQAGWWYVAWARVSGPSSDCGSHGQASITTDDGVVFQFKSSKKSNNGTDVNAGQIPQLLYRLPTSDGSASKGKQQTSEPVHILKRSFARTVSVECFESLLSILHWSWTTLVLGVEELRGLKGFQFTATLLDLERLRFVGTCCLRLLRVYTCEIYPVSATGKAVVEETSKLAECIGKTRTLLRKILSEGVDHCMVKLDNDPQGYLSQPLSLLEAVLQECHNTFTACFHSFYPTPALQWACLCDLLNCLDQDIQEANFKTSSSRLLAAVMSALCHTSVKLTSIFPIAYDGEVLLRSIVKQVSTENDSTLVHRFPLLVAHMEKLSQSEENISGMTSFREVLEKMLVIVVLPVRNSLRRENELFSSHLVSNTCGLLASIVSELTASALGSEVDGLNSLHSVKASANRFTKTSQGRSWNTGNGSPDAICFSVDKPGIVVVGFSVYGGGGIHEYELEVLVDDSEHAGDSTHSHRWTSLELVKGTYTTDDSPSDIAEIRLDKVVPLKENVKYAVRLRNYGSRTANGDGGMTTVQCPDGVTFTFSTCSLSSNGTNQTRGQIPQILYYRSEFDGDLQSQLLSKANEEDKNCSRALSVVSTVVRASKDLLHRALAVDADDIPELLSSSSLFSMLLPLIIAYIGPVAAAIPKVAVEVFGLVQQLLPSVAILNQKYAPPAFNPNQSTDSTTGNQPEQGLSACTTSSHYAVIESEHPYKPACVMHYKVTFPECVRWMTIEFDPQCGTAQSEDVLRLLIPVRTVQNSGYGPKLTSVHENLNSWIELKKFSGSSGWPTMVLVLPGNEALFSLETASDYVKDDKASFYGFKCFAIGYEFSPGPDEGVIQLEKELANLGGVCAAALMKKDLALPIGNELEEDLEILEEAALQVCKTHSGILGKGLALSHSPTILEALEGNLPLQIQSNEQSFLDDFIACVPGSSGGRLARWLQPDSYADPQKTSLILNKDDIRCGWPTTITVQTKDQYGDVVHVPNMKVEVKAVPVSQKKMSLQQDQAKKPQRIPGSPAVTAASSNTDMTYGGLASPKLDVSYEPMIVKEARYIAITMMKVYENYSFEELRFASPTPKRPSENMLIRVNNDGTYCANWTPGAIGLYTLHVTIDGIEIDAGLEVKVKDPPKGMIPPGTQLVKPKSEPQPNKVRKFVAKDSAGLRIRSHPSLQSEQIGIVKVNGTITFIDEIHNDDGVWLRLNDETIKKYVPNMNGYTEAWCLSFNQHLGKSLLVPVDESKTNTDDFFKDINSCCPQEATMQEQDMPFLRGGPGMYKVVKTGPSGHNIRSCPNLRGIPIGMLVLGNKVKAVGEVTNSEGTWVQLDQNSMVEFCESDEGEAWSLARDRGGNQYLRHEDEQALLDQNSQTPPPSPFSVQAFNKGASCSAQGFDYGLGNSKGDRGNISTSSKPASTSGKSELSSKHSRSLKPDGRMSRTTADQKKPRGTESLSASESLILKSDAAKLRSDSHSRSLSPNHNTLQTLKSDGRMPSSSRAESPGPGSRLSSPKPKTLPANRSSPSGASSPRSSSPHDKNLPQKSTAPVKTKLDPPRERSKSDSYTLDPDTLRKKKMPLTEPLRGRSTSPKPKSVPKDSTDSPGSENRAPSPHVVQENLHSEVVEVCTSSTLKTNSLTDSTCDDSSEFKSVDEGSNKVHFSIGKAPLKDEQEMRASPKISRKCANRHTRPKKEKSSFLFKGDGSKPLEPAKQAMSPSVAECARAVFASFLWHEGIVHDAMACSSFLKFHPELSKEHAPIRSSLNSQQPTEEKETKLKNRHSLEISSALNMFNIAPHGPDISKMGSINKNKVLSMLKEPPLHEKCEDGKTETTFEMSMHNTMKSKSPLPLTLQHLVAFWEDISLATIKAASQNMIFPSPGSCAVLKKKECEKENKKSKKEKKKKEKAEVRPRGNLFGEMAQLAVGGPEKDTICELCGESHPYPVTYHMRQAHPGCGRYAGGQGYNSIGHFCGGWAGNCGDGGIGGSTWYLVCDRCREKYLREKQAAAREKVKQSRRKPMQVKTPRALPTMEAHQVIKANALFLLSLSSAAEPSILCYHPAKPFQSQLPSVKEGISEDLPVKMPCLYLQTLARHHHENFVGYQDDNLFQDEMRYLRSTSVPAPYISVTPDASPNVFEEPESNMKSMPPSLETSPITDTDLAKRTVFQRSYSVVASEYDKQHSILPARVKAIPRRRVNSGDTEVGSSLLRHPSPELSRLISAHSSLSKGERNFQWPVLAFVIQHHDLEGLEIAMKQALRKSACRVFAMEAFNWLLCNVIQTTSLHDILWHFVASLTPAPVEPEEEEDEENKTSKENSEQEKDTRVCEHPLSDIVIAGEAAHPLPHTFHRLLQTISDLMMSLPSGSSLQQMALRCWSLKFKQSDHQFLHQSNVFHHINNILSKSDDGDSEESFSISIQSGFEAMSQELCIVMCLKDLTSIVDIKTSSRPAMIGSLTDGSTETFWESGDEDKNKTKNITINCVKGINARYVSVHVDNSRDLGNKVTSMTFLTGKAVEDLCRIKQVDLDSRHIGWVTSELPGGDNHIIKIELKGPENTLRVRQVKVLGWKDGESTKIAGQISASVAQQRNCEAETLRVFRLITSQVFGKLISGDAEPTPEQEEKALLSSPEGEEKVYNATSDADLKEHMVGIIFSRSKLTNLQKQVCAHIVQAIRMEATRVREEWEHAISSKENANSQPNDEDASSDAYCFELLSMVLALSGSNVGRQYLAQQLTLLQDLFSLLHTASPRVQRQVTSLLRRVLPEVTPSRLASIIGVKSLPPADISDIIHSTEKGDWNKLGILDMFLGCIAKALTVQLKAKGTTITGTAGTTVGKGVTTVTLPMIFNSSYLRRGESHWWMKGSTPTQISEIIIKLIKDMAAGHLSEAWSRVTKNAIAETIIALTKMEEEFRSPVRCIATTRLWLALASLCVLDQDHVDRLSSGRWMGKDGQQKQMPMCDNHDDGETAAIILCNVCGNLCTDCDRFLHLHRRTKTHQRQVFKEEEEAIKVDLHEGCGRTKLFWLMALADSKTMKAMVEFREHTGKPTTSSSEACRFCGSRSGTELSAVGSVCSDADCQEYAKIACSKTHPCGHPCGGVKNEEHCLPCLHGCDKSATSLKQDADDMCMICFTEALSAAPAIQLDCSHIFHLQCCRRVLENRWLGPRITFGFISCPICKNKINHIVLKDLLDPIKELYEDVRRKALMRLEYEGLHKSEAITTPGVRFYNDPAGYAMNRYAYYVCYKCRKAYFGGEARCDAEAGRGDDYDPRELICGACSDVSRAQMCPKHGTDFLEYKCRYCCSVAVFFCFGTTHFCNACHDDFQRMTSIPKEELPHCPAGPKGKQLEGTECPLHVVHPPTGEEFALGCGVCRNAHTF

According to PMC4604155:

Tests used:
Assay in all cases: affinity purification with mass spectrometry; FLAG-tagged full-length GIG or BTB bait expressed in HEK293 cells for 28 hours, purified on flag beads, eluted with 3X flag peptide, NanoLC MALDI-TOF/TOF; untransfected cells as negative control; hits parsed at 80% and 98% CI
[1] = biological target: T1, FLAG-tagged full-length gigaxonin (GIG) (UniProt Q9H2C0)
T1 sequence: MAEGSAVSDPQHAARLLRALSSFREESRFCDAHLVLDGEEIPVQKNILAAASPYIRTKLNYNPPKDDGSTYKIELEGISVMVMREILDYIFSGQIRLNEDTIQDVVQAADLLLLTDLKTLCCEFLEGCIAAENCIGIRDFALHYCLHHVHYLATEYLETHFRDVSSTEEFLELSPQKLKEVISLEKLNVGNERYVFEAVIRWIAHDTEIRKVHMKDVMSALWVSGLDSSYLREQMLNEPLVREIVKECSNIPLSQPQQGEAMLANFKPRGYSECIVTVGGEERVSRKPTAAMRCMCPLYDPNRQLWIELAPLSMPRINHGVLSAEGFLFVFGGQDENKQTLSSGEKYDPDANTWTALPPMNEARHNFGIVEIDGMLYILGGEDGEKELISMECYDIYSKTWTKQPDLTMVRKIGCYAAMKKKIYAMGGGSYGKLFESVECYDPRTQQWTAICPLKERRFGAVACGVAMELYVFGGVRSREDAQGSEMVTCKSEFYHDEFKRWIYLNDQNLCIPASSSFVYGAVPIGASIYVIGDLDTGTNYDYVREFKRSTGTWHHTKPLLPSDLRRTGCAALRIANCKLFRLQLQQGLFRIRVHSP

[2] = biological target: T2, truncated gigaxonin lacking the Kelch domain ("BTB" domain bait) (UniProt Q9H2C0)
T2 sequence: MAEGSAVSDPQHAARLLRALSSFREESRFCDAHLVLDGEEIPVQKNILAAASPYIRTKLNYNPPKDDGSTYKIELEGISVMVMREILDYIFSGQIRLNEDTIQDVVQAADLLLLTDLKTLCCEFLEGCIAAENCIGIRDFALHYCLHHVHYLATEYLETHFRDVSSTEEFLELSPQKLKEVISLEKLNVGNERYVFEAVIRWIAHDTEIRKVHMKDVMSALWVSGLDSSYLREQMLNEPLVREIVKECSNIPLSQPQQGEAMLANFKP

[3] = biological target: T3, FLAG-tagged full-length gigaxonin (GIG), Q9H2C0; settings: remark: other sources report otherwise
T3 chain: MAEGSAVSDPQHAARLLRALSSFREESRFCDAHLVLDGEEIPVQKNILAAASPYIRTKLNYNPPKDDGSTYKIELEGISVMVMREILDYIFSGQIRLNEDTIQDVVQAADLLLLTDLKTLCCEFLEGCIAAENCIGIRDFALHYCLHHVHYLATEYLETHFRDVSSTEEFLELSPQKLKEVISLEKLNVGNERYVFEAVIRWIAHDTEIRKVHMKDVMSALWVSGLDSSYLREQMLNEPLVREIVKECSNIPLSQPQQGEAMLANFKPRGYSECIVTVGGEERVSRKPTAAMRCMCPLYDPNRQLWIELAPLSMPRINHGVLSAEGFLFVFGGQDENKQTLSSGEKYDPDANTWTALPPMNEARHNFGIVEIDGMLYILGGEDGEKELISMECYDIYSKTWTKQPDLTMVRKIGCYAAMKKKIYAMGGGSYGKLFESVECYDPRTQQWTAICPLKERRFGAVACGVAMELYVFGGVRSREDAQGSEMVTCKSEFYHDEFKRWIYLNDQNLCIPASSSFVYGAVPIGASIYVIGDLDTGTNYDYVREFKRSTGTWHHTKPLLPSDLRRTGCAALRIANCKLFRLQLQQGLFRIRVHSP

For “vimentin (VIM) (from UniProt P08670 1-466)”, the binding [1] was “binds” and the binding [2] was “no binding”.

In the case of “HSP90AB1 (heat shock protein 90 beta) (from UniProt P08238 1-724)”, the binding [1] is reported as “binds” and the binding [2] is reported as “binds”.

With “peripherin (PRPH), endogenous (from UniProt P41219 1-470)” the binding [1] was “binds” and the binding [2] was “no binding”.

In the case of “E3 ubiquitin protein ligase MYC binding protein 2 (MYCBP2) (from UniProt O75592 1-4678) (enzyme)”, the binding [1] is reported as “binds” and the binding [2] is reported as “binds”.

With “HSP90AA1 (heat shock protein 90 alpha) (from UniProt P07900 1-732)” the binding [1] was “binds” and the binding [2] was “binds”.

B1: α-internexin (INA) (protein, UniProt Q16352 1-499)
chain: MSFGSEHYLCSSSSYRKVFGDGSRLSARLSGAGGAGGFRSQSLSRSNVASSAACSSASSLGLGLAYRRPPASDGLDLSQAAARTNEYKIIRTNEKEQLQGLNDRFAVFIEKVHQLETQNRALEAELAALRQRHAEPSRVGELFQRELRDLRAQLEEASSARSQALLERDGLAEEVQRLRARCEEESRGREGAERALKAQQRDVDGATLARLDLEKKVESLLDELAFVRQVHDEEVAELLATLQASSQAAAEVDVTVAKPDLTSALREIRAQYESLAAKNLQSAEEWYKSKFANLNEQAARSTEAIRASREEIHEYRRQLQARTIEIEGLRGANESLERQILELEERHSAEVAGYQDSIGQLENDLRNTKSEMARHLREYQDLLNVKMALDIEIAAYRKLLEGEETRFSTSGLSISGLNPLPNPSYLLPPRILSATTSKVSSTGLSLKKEEEEEEASKVASKKTSQIGESFEEILEETVISTKKTEKSNIEETTISSQKI
B1 was tested, and the binding [1] was “binds” and the binding [2] was “no binding”.

B2: keratin 82 (protein, UniProt Q9NSB4 1-513)
chain: MSYHSFQPGSRCGSQSFSSYSAVMPRMVTHYAVSKGPCRPGGGRGLRALGCLGSRSLCNVGFGRPRVASRCGGTLPGFGYRLGATCGPSACITPVTINESLLVPLALEIDPTVQRVKRDEKEQIKCLNNRFASFINKVRFLEQKNKLLETKWNFMQQQRCCQTNIEPIFEGYISALRRQLDCVSGDRVRLESELCSLQAALEGYKKKYEEELSLRPCVENEFVALKKDVDTAFLMKADLETNAEALVQEIDFLKSLYEEEICLLQSQISETSVIVKMDNSRELDVDGIIAEIKAQYDDIASRSKAEAEAWYQCRYEELRVTAGNHCDNLRNRKNEILEMNKLIQRLQQETENVKAQRCKLEGAIAEAEQQGEAALNDAKCKLAGLEEALQKAKQDMACLLKEYQEVMNSKLGLDIEIATYRRLLEGEEHRLCEGIGPVNISVSSSKGAFLYEPCGVSTPVLSTGVLRSNGGCSIVGTGELYVPCEPQGLLSCGSGRKSSMTLGAGGSSPSHKH
With B2 the binding [1] was “binds” and the binding [2] was “no binding”.

B3: lamin B2 (protein, UniProt Q03252 1-620)
chain: MSPPSPGRRREQRRPRAAATMATPLPGRAGGPATPLSPTRLSRLQEKEELRELNDRLAHYIDRVRALELENDRLLLKISEKEEVTTREVSGIKALYESELADARRVLDETARERARLQIEIGKLRAELDEVNKSAKKREGELTVAQGRVKDLESLFHRSEVELAAALSDKRGLESDVAELRAQLAKAEDGHAVAKKQLEKETLMRVDLENRCQSLQEELDFRKSVFEEEVRETRRRHERRLVEVDSSRQQEYDFKMAQALEELRSQHDEQVRLYKLELEQTYQAKLDSAKLSSDQNDKAASAAREELKEARMRLESLSYQLSGLQKQASAAEDRIRELEEAMAGERDKFRKMLDAKEQEMTEMRDVMQQQLAEYQELLDVKLALDMEINAYRKLLEGEEERLKLSPSPSSRVTVSRATSSSSGSLSATGRLGRSKRKRLEVEEPLGSGPSVLGTGTGGSGGFHLAQQASASGSVSIEEIDLEGKFVQLKNNSDKDQSLGNWRIKRQVLEGEEIAYKFTPKYILRAGQMVTVWAAGAGVAHSPPSTLVWKGQSSWGTGESFRTVLVNADGEEVAMRTVKKSSVMRENENGEEEEEEAEFGEEDLFHQQGDPRTTSRGCYVM
In the case of B3, the binding [1] is reported as “binds” and the binding [2] is reported as “no binding”.

B4: neurofilament light chain (NEFL) (protein, UniProt P07196 1-543)
chain: MSSFSYEPYYSTSYKRRYVETPRVHISSVRSGYSTARSAYSSYSAPVSSSLSVRRSYSSSSGSLMPSLENLDLSQVAAISNDLKSIRTQEKAQLQDLNDRFASFIERVHELEQQNKVLEAELLVLRQKHSEPSRFRALYEQEIRDLRLAAEDATNEKQALQGEREGLEETLRNLQARYEEEVLSREDAEGRLMEARKGADEAALARAELEKRIDSLMDEISFLKKVHEEEIAELQAQIQYAQISVEMDVTKPDLSAALKDIRAQYEKLAAKNMQNAEEWFKSRFTVLTESAAKNTDAVRAAKDEVSESRRLLKAKTLEIEACRGMNEALEKQLQELEDKQNADISAMQDTINKLENELRTTKSEMARYLKEYQDLLNVKMALDIEIAAYRKLLEGEETRLSFTSVGSITSGYSQSSQVFGRSAYGGLQTSSYLMSTRSFPSYYTSHVQEEQIEVEETIEAAKAEEAKDEPPSEGEAEEEEKDKEEAEEEEAAEEEEAAKEESEEAKEEEEGGEGEEGEETKEAEEEEKKVEGAGEEQAAKKKD
With B4 the binding [1] was “binds” and the binding [2] was “no binding”.

B5: neurofilament heavy chain (NEFH) (protein, UniProt P12036 1-1020)
chain: MMSFGGADALLGAPFAPLHGGGSLHYALARKGGAGGTRSAAGSSSGFHSWTRTSVSSVSASPSRFRGAGAASSTDSLDTLSNGPEGCMVAVATSRSEKEQLQALNDRFAGYIDKVRQLEAHNRSLEGEAAALRQQQAGRSAMGELYEREVREMRGAVLRLGAARGQLRLEQEHLLEDIAHVRQRLDDEARQREEAEAAARALARFAQEAEAARVDLQKKAQALQEECGYLRRHHQEEVGELLGQIQGSGAAQAQMQAETRDALKCDVTSALREIRAQLEGHAVQSTLQSEEWFRVRLDRLSEAAKVNTDAMRSAQEEITEYRRQLQARTTELEALKSTKDSLERQRSELEDRHQADIASYQEAIQQLDAELRNTKWEMAAQLREYQDLLNVKMALDIEIAAYRKLLEGEECRIGFGPIPFSLPEGLPKIPSVSTHIKVKSEEKIKVVEKSEKETVIVEEQTEETQVTEEVTEEEEKEAKEEEGKEEEGGEEEEAEGGEEETKSPPAEEAASPEKEAKSPVKEEAKSPAEAKSPEKEEAKSPAEVKSPEKAKSPAKEEAKSPPEAKSPEKEEAKSPAEVKSPEKAKSPAKEEAKSPAEAKSPEKAKSPVKEEAKSPAEAKSPVKEEAKSPAEVKSPEKAKSPTKEEAKSPEKAKSPEKEEAKSPEKAKSPVKAEAKSPEKAKSPVKAEAKSPEKAKSPVKEEAKSPEKAKSPVKEEAKSPEKAKSPVKEEAKTPEKAKSPVKEEAKSPEKAKSPEKAKTLDVKSPEAKTPAKEEARSPADKFPEKAKSPVKEEVKSPEKAKSPLKEDAKAPEKEIPKKEEVKSPVKEEEKPQEVKVKEPPKKAEEEKAPATPKTEEKKDSKKEEAPKKEAPKPKVEEKKEPAVEKPKESKVEAKKEEAEDKKKVPTPEKEAPAKVEVKEDAKPKEKTEVAKKEPDDAKAKEPSKPAEKKEAAPEKKDTKEEKAKKPEEKPKTEAKAKEDDKTLSKEPSKPKAEKAEKSSSTDQKDSKPPEKATEDKAAKGK
B5 was tested, and the binding [1] was “binds” and the binding [2] was “no binding”.

B6: tubulin-folding co-factor B (TBCB), Q99426 1-244 (protein)
chain: MEVTGVSAPTVTVFISSSLNTFRSEKRYSRSLTIAEFKCKLELLVGSPASCMELELYGVDDKFYSKLDQEDALLGSYPVDDGCRIHVIDHSGARLGEYEDVSRVEKYTISQEAYDQRQDTVRSFLKRSKLGRYNEEERAQQEAEAAQRLAEEKAQASSIPVGSRCEVRAAGQSPRRGTVMYVGLTDFKPGYWIGVRYDEPLGKNDGSVNGKRYFECQAKYGAFVKPAVVTVGDFPEEDYGLDEI
For B6, the binding [3] was “no binding”.

No constants are given. Whether binding was seen depends on the method and setting. In cells and extracts the contact can be indirect. A yes stands for co-enrichment or nearness to the bait. Other partners may have been found. For part of these data: No binding means not detected with the bait. For part of these data: Sequences can lack the tags named with a protein.
